The supplement of paper PMC10849652
The list shows a part of the results.

Amino acid sequences for entries named in this document (tags omitted). A change or cut given only in a name is not applied to a line headed by its entry.
UniProt P63172, whole entry, looked up: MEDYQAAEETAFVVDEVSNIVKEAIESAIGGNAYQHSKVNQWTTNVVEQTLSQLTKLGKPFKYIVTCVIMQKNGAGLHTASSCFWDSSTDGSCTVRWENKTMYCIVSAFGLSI
UniProt Q9BVJ7: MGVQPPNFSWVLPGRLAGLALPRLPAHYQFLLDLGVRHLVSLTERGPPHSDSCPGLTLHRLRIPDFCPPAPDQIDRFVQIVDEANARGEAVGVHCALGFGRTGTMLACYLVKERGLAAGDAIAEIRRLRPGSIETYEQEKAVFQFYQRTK
UniProt Q99543: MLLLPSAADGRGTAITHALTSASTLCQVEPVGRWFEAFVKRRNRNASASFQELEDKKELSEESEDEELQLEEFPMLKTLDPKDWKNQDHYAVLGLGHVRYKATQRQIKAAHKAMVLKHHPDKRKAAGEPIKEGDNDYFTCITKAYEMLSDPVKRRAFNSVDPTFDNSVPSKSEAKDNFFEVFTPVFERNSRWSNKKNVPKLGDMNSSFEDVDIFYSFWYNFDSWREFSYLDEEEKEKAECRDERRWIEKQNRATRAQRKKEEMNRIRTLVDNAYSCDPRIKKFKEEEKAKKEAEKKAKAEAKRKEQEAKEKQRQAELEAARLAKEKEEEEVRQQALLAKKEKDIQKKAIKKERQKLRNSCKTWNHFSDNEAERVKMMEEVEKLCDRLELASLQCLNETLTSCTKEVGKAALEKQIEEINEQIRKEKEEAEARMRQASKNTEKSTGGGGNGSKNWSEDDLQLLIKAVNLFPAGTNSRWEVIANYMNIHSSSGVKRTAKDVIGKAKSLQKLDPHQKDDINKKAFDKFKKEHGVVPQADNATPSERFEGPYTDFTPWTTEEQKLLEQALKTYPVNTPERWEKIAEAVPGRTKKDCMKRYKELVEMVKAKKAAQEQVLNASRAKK
UniProt Q7L8W6: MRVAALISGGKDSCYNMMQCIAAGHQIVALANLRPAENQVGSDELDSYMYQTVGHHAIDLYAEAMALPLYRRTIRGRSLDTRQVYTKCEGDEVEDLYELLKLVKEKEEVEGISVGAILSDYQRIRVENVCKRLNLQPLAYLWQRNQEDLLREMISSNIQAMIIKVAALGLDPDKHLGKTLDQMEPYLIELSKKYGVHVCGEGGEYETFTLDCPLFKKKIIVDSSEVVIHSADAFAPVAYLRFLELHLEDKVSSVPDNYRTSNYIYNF
UniProt Q9NZJ0: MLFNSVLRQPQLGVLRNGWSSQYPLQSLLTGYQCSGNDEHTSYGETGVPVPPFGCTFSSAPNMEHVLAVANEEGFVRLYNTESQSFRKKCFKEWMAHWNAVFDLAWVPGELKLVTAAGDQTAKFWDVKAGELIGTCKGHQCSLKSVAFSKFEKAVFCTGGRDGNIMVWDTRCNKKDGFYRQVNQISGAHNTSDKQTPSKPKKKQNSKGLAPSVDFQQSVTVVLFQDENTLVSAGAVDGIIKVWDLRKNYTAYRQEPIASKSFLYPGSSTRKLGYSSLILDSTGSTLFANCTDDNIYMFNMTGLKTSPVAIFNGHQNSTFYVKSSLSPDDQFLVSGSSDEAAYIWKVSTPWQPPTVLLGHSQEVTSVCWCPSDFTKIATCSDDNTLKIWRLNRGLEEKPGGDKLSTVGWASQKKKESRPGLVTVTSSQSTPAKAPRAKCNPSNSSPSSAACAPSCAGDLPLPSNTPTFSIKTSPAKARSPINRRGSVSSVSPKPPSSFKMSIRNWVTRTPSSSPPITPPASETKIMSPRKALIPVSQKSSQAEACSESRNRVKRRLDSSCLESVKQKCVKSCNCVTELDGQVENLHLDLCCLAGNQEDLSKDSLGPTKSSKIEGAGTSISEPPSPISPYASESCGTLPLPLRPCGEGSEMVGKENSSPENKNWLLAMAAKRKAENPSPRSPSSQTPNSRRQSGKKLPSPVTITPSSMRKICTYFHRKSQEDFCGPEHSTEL
UniProt Q9UBS4: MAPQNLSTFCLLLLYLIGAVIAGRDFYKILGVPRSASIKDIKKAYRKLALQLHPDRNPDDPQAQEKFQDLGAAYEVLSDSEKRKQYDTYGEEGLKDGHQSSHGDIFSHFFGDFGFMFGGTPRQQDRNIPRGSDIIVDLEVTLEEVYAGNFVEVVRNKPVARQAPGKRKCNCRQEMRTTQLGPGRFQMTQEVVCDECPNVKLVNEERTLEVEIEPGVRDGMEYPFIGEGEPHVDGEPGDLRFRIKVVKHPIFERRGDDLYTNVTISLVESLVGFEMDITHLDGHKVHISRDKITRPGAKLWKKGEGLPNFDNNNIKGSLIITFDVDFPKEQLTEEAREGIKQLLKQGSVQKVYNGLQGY
UniProt Q5F1R6: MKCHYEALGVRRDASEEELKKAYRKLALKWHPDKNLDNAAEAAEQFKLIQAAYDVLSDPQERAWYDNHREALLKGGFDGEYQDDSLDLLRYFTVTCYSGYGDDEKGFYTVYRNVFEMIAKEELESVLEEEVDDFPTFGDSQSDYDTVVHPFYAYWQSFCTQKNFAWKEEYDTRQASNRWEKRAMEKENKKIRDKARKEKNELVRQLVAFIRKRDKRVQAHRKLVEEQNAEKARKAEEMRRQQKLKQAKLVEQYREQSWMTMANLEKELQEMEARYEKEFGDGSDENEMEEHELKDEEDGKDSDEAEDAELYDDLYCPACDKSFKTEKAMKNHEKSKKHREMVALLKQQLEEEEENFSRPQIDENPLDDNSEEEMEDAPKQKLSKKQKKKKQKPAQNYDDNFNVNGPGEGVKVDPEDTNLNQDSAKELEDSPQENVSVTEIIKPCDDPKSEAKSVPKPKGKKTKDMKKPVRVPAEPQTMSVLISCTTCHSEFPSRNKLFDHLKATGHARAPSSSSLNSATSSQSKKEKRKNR
UniProt Q9NTX5: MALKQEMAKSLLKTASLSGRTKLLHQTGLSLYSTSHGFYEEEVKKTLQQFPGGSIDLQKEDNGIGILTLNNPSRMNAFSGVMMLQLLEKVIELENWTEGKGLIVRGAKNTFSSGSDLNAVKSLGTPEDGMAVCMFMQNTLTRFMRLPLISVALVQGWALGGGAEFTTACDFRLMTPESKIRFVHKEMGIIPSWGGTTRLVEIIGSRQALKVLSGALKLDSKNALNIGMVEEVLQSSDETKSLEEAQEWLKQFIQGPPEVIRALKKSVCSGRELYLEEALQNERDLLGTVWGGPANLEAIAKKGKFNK
UniProt Q9NY33: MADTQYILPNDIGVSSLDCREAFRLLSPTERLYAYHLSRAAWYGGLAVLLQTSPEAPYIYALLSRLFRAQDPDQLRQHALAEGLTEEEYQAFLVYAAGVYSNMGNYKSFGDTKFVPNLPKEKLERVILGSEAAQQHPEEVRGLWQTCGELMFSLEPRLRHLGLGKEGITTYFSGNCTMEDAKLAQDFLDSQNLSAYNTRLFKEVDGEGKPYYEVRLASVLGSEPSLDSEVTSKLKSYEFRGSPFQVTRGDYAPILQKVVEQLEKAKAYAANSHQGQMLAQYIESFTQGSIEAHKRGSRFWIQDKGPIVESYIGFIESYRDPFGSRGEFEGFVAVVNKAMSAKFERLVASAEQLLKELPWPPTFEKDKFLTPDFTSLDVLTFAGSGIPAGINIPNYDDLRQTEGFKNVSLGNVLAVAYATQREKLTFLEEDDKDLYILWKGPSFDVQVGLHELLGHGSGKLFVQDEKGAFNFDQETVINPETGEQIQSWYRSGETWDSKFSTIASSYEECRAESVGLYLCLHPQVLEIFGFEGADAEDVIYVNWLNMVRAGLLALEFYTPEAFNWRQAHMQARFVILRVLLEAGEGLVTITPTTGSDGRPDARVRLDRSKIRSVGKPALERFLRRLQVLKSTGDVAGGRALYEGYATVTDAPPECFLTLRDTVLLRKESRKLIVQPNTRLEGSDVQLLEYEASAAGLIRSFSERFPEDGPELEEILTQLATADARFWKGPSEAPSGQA
UniProt Q9Y6G9, whole entry, looked up: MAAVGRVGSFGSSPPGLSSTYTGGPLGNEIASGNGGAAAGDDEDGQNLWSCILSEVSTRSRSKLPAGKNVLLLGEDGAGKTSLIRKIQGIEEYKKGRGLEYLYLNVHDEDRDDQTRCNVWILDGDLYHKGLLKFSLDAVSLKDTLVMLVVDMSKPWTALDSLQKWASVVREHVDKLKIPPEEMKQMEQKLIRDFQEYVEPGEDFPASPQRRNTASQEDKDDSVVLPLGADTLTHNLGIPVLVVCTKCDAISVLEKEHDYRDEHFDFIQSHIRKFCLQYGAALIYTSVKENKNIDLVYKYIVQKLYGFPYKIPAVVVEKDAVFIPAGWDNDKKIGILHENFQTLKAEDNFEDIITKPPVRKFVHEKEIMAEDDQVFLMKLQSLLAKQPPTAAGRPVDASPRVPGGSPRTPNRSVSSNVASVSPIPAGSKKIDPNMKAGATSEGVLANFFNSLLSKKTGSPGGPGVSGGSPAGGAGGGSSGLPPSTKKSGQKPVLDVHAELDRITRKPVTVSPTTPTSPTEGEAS
UniProt O75190: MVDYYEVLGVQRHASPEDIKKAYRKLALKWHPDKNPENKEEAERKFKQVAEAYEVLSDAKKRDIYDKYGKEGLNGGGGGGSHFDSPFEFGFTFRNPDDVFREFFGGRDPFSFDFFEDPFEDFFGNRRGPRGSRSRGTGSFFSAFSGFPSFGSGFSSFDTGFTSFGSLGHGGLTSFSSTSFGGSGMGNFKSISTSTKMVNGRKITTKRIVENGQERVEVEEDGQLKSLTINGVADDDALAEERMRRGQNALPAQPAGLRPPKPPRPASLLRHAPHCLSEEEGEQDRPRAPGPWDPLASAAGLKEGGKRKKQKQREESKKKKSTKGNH
UniProt O00559: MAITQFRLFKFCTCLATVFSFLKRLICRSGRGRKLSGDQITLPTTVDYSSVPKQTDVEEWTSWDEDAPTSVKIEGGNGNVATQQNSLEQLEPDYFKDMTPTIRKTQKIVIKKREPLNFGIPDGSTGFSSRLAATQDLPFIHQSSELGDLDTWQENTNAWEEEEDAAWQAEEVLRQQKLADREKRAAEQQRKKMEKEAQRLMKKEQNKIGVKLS
UniProt O75061: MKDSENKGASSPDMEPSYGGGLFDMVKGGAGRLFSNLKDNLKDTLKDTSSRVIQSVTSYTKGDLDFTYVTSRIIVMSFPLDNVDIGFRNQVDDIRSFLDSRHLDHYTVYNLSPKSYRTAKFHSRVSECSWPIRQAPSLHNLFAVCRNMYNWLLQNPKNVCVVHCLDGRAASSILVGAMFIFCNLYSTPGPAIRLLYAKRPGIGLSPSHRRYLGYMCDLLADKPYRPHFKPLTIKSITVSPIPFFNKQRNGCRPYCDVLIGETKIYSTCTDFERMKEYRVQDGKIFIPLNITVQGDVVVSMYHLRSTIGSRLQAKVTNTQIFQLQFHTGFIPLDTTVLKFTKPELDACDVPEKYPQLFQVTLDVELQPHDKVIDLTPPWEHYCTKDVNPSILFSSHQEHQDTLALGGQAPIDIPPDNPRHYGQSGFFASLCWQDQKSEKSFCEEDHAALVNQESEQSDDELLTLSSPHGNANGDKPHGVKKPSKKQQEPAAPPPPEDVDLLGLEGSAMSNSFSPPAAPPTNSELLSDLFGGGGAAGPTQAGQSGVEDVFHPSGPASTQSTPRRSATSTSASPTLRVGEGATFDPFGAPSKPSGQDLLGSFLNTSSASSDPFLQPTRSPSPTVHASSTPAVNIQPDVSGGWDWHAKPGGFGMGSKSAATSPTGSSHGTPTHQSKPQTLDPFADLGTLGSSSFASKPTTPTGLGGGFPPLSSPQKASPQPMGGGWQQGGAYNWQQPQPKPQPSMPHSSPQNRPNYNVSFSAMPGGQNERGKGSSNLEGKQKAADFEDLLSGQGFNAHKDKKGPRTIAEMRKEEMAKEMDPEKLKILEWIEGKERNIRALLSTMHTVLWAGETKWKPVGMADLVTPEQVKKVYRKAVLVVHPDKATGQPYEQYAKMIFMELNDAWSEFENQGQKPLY

Columns and labels:
Assay in all cases: log2 fold change, soluble protein after heating vs DMSO (PISA); higher = thermal stabilisation; K562 cells, 10 uM, 30 min; active = over 0.2 and 3.5 SD of the protein, either way, in both replicates (recomputed)
saracatinib = compound: CN1CCN(CCOc2cc(OC3CCOCC3)c3c(Nc4c(Cl)ccc5c4OCO5)ncnc3c2)CC1 [saracatinib]
How it was run: (§1)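 K562 cells at 2×10^6 cells/mL were exposed to 10 μM compound for 30 min, then aliquots were heated for 3 min across 48°C-58°C, pooled, and extracted in PBS containing 0.5% NP-40 at 4°C. The supernatant after 21,000xg for 90 min was taken as soluble protein and measured by TMTpro 16plex LC-MS/MS with channel sums equalised. Thermal stability is reported relative to control samples, with values from duplicates. Fold changes are given on a log2 scale.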

sotrastaurin = compound: CN1CCN(c2nc(C3=C(c4c[nH]c5ccccc45)C(=O)NC3=O)c3ccccc3n2)CC1 [sotrastaurin]
How it was run: as §1

alvocidib = compound: CN1CC[C@H](c2c(O)cc(O)c3c(=O)cc(-c4ccccc4Cl)oc23)[C@H](O)C1 [alvocidib]
How it was run: as §1

Tubastatin A = compound: CN1CCc2c(c3ccccc3n2Cc2ccc(C(=O)NO)cc2)C1 [Tubastatin A]
How it was run: as §1

[1] = compound: CNC(=O)C1=CC=CC=C1NC2=NC(=NC=C2Cl)NC3=C(C=C(C=C3)N4CCOCC4)OC
How it was run: as §1

defactinib = compound: CNC(=O)c1ccc(Nc2ncc(C(F)(F)F)c(NCc3nccnc3N(C)S(C)(=O)=O)n2)cc1 [defactinib]
How it was run: as §1

rucaparib = compound: CNCc1ccc(-c2[nH]c3cc(F)cc4c3c2CCNC4=O)cc1 [rucaparib]
How it was run: as §1

[2] = compound: CNc1nc(-c2ccc3c(N)n[nH]c3c2)cc(N2C[C@@H](C(=O)NC3CCCCC3)CC[C@H]2C)n1
How it was run: as §1

encorafenib = compound: COC(=O)N[C@@H](C)CNc1nccc(-c2cn(C(C)C)nc2-c2cc(Cl)cc(NS(C)(=O)=O)c2F)n1 [encorafenib]
How it was run: as §1

[3] = compound: COC(=O)[C@H](CCSC)NC(=O)C1=C(C=C(C=C1)NC[C@H](CS)N)C2=CC=CC=C2
How it was run: as §1

[4] = compound: COC1=CC=C(C=C1)CN2C=CC3=C2C=C(C=C3)C(=O)NO
How it was run: as §1

filanesib = compound: CON(C)C(=O)N1N=C(c2cc(F)ccc2F)S[C@@]1(CCCN)c1ccccc1 [filanesib]
How it was run: as §1

zotarolimus = compound: CO[C@H]1C[C@@H]2CC[C@@H](C)[C@@](O)(O2)C(=O)C(=O)N2CCCC[C@H]2C(=O)O[C@H]([C@H](C)C[C@@H]2CC[C@H](n3cnnn3)[C@H](OC)C2)CC(=O)[C@H](C)/C=C(\C)[C@@H](O)[C@@H](OC)C(=O)[C@H](C)C[C@H](C)/C=C/C=C/C=C/1C [zotarolimus]
How it was run: as §1

idasanutlin = compound: COc1cc(C(=O)O)ccc1NC(=O)[C@@H]1N[C@@H](CC(C)(C)C)[C@](C#N)(c2ccc(Cl)cc2F)[C@H]1c1cccc(Cl)c1F [idasanutlin]
How it was run: as §1

alisertib = compound: COc1cc(Nc2ncc3c(n2)-c2ccc(Cl)cc2C(c2c(F)cccc2OC)=NC3)ccc1C(=O)O [alisertib]
How it was run: as §1

[5] = compound: COc1cc2nc(-c3cc(F)ccc3O)nc(N[C@@H]3CNC[C@H]3C(C)(C)O)c2cc1OC
How it was run: as §1

gefitinib = compound: COc1cc2ncnc(Nc3ccc(F)c(Cl)c3)c2cc1OCCCN1CCOCC1 [gefitinib]
How it was run: as §1

[6] = compound: COc1cccc2cc(-c3nc([C@H]4CC[C@H](C(=O)O)CC4)n4ncnc(N)c34)[nH]c12
How it was run: as §1

lapatinib = compound: CS(=O)(=O)CCNCc1ccc(-c2ccc3ncnc(Nc4ccc(OCc5cccc(F)c5)c(Cl)c4)c3c2)o1 [lapatinib]
How it was run: as §1

pictilisib = compound: CS(=O)(=O)N1CCN(Cc2cc3nc(-c4cccc5[nH]ncc45)nc(N4CCOCC4)c3s2)CC1 [pictilisib]
How it was run: as §1

Measured: log2 fold change

DYNLT1 (UniProt P63172)
inactive: saracatinib -0.021 | sotrastaurin -0.138 | alvocidib -0.236 | Tubastatin A 0.148 | [1] 0.097 | defactinib -0.04 | rucaparib 0.019 | [2] -0.015 | encorafenib 0.075 | [3] 0.013 | [4] 0.236 | filanesib -0.158 | zotarolimus 0.127 | idasanutlin -0.08 | alisertib -0.071 | [5] -0.012 | gefitinib -0.032 | [6] -0.128 | lapatinib 0.014 | pictilisib -0.189

DUSP23 (UniProt Q9BVJ7)
inactive: saracatinib 0.019 | sotrastaurin -0.02 | alvocidib -0.028 | Tubastatin A 0.042 | [1] -0.029 | defactinib 0.071 | rucaparib 0.031 | [2] 0.01 | encorafenib -0.001 | [3] -0.059 | [4] -0.025 | filanesib 0.01 | zotarolimus 0.058 | idasanutlin 0.096 | alisertib -0.033 | [5] -0.054 | gefitinib 0.001 | [6] 0.036 | lapatinib 0.022 | pictilisib 0.048

DNAJC2 (UniProt Q99543)
inactive: saracatinib -0.115 | sotrastaurin -0.205 | alvocidib 0.023 | Tubastatin A 0.102 | [1] -0.039 | defactinib -0.019 | rucaparib 0.223 | [2] 0.061 | encorafenib 0.225 | [3] -0.132 | [4] -0.002 | filanesib 0.109 | zotarolimus 0.002 | idasanutlin 0.099 | alisertib -0.035 | [5] 0.129 | gefitinib 0.006 | [6] -0.278 | lapatinib -0.025 | pictilisib -0.068

DPH6 (UniProt Q7L8W6)
inactive: saracatinib 0.014 | sotrastaurin 0.017 | alvocidib 0.08 | Tubastatin A -0.014 | [1] 0.02 | defactinib -0.053 | rucaparib 0.019 | [2] -0.031 | encorafenib 0.05 | [3] -0.041 | [4] -0.055 | filanesib -0.039 | zotarolimus -0.085 | idasanutlin -0.141 | alisertib -0.009 | [5] 0.054 | gefitinib -0.002 | [6] -0.046 | lapatinib 0.016 | pictilisib -0.182

DTL (UniProt Q9NZJ0)
inactive: saracatinib 0.094 | sotrastaurin -0.059 | alvocidib -0.287 | Tubastatin A 0.059 | [1] 0.144 | defactinib -0.042 | rucaparib 0.108 | [2] -0.02 | encorafenib -0.118 | [3] -0.003 | [4] -0.233 | filanesib 0.029 | zotarolimus 0.013 | idasanutlin 0.027 | alisertib 0.009 | [5] 0.058 | gefitinib 0.044 | [6] -0.006 | lapatinib -0.038 | pictilisib 0.014

DNAJB11 (UniProt Q9UBS4)
inactive: saracatinib -0.018 | sotrastaurin 0.02 | alvocidib 0.074 | Tubastatin A -0.039 | [1] 0.005 | defactinib 0.057 | rucaparib 0.027 | [2] -0.022 | encorafenib -0.038 | [3] 0.026 | [4] -0.058 | filanesib 0.013 | zotarolimus -0.081 | idasanutlin 0.008 | alisertib -0.023 | [5] -0.016 | gefitinib 0.021 | [6] 0.038 | lapatinib 0.008 | pictilisib 0.054

EAF1 (UniProt Q96JC9)
inactive: saracatinib -0.062 | sotrastaurin -0.02 | alvocidib -0.056 | Tubastatin A 0.076 | [1] 0.009 | defactinib -0.088 | rucaparib -0.095 | [2] -0.154 | encorafenib 0.021 | [3] 0.006 | [4] 0.005 | filanesib -0.013 | zotarolimus -0.008 | idasanutlin 0.005 | alisertib -0.091 | [5] 0.034 | gefitinib 0.037 | [6] -0.017 | lapatinib -0.074 | pictilisib -0.049

DPY19L1, A0A1B0GW05
inactive: saracatinib 0.095 | sotrastaurin -0.046 | alvocidib 0.025 | Tubastatin A 0.021 | [1] 0.071 | defactinib 0.014 | rucaparib 0.041 | [2] -0.052 | encorafenib 0.046 | [3] 0.047 | [4] 0.003 | filanesib 0.024 | zotarolimus -0.011 | idasanutlin -0.026 | alisertib -0.039 | [5] -0.053 | gefitinib 0.028 | [6] -0.071 | lapatinib 0.102

DNPEP (UniProt Q9ULA0)
inactive: saracatinib 0.054 | sotrastaurin -0.044 | alvocidib -0.004 | Tubastatin A -0.035 | [1] -0.038 | defactinib -0.019 | rucaparib -0.021 | [2] -0.011 | encorafenib -0.02 | [3] -0.011 | [4] 0.115 | filanesib -0.069 | zotarolimus -0.029 | idasanutlin -0.03 | alisertib -0.081 | [5] -0.007 | gefitinib -0.022 | [6] 0.037 | lapatinib -0.026 | pictilisib -0.006

DNAJC21 isoform 3 (UniProt Q5F1R6)
inactive: saracatinib -0.005 | sotrastaurin -0.027 | alvocidib 0.061 | Tubastatin A 0.087 | [1] 0.024 | defactinib 0.019 | rucaparib 0.202 | [2] 0.064 | encorafenib 0.092 | [3] -0.113 | [4] 0.022 | filanesib 0.129 | zotarolimus -0.014 | idasanutlin 0.083 | alisertib -0.01 | [5] 0.072 | gefitinib -0.009 | [6] -0.099 | lapatinib 0.015 | pictilisib -0.062

Quoted from the listing (2 entries):
EAF1 (UniProt Q96JC9)
inactive: saracatinib -0.062 | sotrastaurin -0.02 | alvocidib -0.056 | Tubastatin A 0.076 | [1] 0.009 | defactinib -0.088 | rucaparib -0.095 | [2] -0.154 | encorafenib 0.021 | [3] 0.006 | [4] 0.005 | filanesib -0.013 | zotarolimus -0.008 | idasanutlin 0.005 | alisertib -0.091 | [5] 0.034 | gefitinib 0.037 | [6] -0.017 | lapatinib -0.074 | pictilisib -0.049

DPY19L1, A0A1B0GW05
inactive: saracatinib 0.095 | sotrastaurin -0.046 | alvocidib 0.025 | Tubastatin A 0.021 | [1] 0.071 | defactinib 0.014 | rucaparib 0.041 | [2] -0.052 | encorafenib 0.046 | [3] 0.047 | [4] 0.003 | filanesib 0.024 | zotarolimus -0.011 | idasanutlin -0.026 | alisertib -0.039 | [5] -0.053 | gefitinib 0.028 | [6] -0.071 | lapatinib 0.102

Later entries.

ECHDC1 (UniProt Q9NTX5)
inactive: saracatinib 0.051 | sotrastaurin 0.036 | alvocidib 0.027 | Tubastatin A -0.03 | [1] 0.009 | defactinib -0.002 | rucaparib -0.021 | [2] -0.047 | encorafenib -0.018 | [3] 0.018 | [4] -0.021 | filanesib -0.014 | zotarolimus -0.045 | idasanutlin -0.02 | alisertib 0.05 | [5] 0.023 | gefitinib 0.021 | [6] 0.055 | lapatinib -0.01 | pictilisib -0.011

DPP3 (UniProt Q9NY33)
inactive: saracatinib -0.027 | sotrastaurin 0.042 | alvocidib -0.052 | Tubastatin A 0.019 | [1] -0.015 | defactinib -0.058 | rucaparib -0.045 | [2] 0.016 | encorafenib -0.017 | [3] 0.069 | [4] 0.015 | filanesib -0.118 | zotarolimus 0.053 | idasanutlin -0.08 | alisertib -0.016 | [5] -0.003 | gefitinib 0.004 | [6] 0.049 | lapatinib 0 | pictilisib 0.01

DYNC1LI1 (UniProt Q9Y6G9)
inactive: saracatinib -0.046 | sotrastaurin -0.059 | alvocidib -0.021 | Tubastatin A 0.006 | [1] 0.035 | defactinib 0.003 | rucaparib -0.017 | [2] 0.042 | encorafenib 0.062 | [3] -0.013 | [4] -0.029 | filanesib -0.037 | zotarolimus 0.004 | idasanutlin -0.034 | alisertib -0.039 | [5] -0.012 | gefitinib -0.013 | [6] -0.037 | lapatinib 0.031 | pictilisib 0.009

DNAJB6 (UniProt O75190)
inactive: saracatinib 0.098 | sotrastaurin 0.002 | alvocidib -0.055 | Tubastatin A 0.005 | [1] 0.02 | defactinib -0.019 | rucaparib -0.044 | [2] -0.124 | encorafenib -0.074 | [3] 0.075 | [4] -0.115 | filanesib 0.046 | zotarolimus -0.031 | idasanutlin -0.075 | alisertib 0.027 | [5] 0.009 | gefitinib 0.02 | [6] -0.004 | lapatinib 0.008 | pictilisib 0.075

EBAG9 isoform 2 (UniProt O00559)
inactive: saracatinib -0.119 | sotrastaurin 0.011 | alvocidib 0.01 | Tubastatin A 0.016 | [1] -0.082 | defactinib 0.04 | rucaparib -0.098 | [2] -0.019 | encorafenib 0.037 | [3] 0.015 | [4] 0.181 | filanesib -0.065 | zotarolimus 0.021 | idasanutlin 0.012 | alisertib -0.06 | [5] -0.024 | gefitinib 0.031 | [6] 0.089 | lapatinib 0.077 | pictilisib 0.112

DNAJC6 isoform 2 (UniProt O75061)
inactive: saracatinib 0.016 | sotrastaurin -0.042 | alvocidib -0.083 | Tubastatin A 0.014 | [1] -0.02 | defactinib -0.061 | rucaparib -0.006 | [2] -0.092 | encorafenib 0.023 | [3] -0.011 | [4] 0.022 | filanesib 0.063 | zotarolimus -0.023 | idasanutlin -0.028 | alisertib -0.05 | [5] 0.053 | gefitinib 0.006 | [6] 0.027 | lapatinib 0.043 | pictilisib 0.087
